Data source: PubChem BioAssay AID1259254 (NCATS, 2017)
Here is an unselected part of about 59,000 reagents. About 1,550 of them (2.6%) were called active. 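G2 share is only a proxy for re-replication; each gene was hit by three separate siRNAs, and active genes were retested.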 Raw values are not corrected between plates. Reagent sequences are not shown. The record does not give: the amount of reagent.

Screen: 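Genome-wide screen for genes that prevent DNA re-replication in cancer cells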 (primary screen)
Cell system: human HCT116 colorectal cancer cells
Reagents: single siRNA against human genes
Duration: 3 days
Measured: 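Nuclei stained with Hoechst and imaged; cell-cycle phase assigned by DNA content; G2 share scaled per plate, non-targeting siRNA 0%, GMNN siRNA 100%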
Direction: G2 robust z-score and G2 cells, % of GMNN control: higher = more G2 cells, more excess DNA replication; raw share of cells in G2: higher = larger share of cells with G2 DNA content
Rule for the call: 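Active siRNAs have a G2 robust z of 5 or more median absolute deviations over the median, which in these data means about 38% or higher of GMNN control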

Gene | PubChem SID | G2 robust z-score | G2 cells, % of GMNN control | raw share of cells in G2 (%) | Call
CPE (GeneID 1363) | SID160747391 | 1.48 | 13.4 | 10.2 | inactive
CPE (GeneID 1363) | SID160747402 | -0.698 | -1.95 | 4.22 | inactive
CPE (GeneID 1363) | SID160747414 | -0.294 | 0.901 | 4.25 | inactive
SNX1 (GeneID 6642) | SID160717154 | 0.376 | 5.61 | 5.69 | inactive
SNX1 (GeneID 6642) | SID160717155 | 0.927 | 9.49 | 9.29 | inactive
SNX1 (GeneID 6642) | SID160717156 | 0.447 | 6.11 | 5.33 | inactive
SFT2D1 (GeneID 113402) | SID160754832 | -0.592 | -1.2 | 3.61 | inactive
SFT2D1 (GeneID 113402) | SID160754833 | -0.0978 | 2.28 | 4.01 | inactive
SFT2D1 (GeneID 113402) | SID160754834 | -0.344 | 0.545 | 1.98 | inactive
INKA2 (GeneID 55924) | SID160744654 | 0.666 | 7.65 | 7.36 | inactive
INKA2 (GeneID 55924) | SID160744655 | -0.879 | -3.22 | 2.92 | inactive
INKA2 (GeneID 55924) | SID160744656 | -0.242 | 1.26 | 3.43 | inactive
PIGQ (GeneID 9091) | SID160721444 | -0.437 | -0.109 | 4.67 | inactive
PIGQ (GeneID 9091) | SID160721445 | -0.594 | -1.21 | 4.84 | inactive
PIGQ (GeneID 9091) | SID160721446 | -0.263 | 1.12 | 5.05 | inactive
TOP1MT (GeneID 116447) | SID160755427 | -0.0732 | 2.45 | 5.41 | inactive
TOP1MT (GeneID 116447) | SID160755428 | -0.223 | 1.4 | 5.57 | inactive
TOP1MT (GeneID 116447) | SID160755429 | -0.329 | 0.654 | 5.97 | inactive
RRAS2 (GeneID 22800) | SID160731243 | 3.62 | 28.5 | 17.8 | inactive
RRAS2 (GeneID 22800) | SID160731252 | -0.286 | 0.954 | 4.47 | inactive
RRAS2 (GeneID 22800) | SID160731260 | 3.74 | 29.3 | 13.9 | inactive
HDAC9 (GeneID 9734) | SID160722939 | 1.1 | 10.7 | 9.09 | inactive
HDAC9 (GeneID 9734) | SID160722940 | -0.662 | -1.69 | 2.62 | inactive
HDAC9 (GeneID 9734) | SID160722941 | 0.308 | 5.13 | 7.14 | inactive
RPL32P19 (GeneID 646433) | SID160769864 | -0.015 | 2.86 | 4.86 | inactive
RPL32P19 (GeneID 646433) | SID160769865 | -0.331 | 0.637 | 3.46 | inactive
RPL32P19 (GeneID 646433) | SID160769866 | -0.225 | 1.38 | 3.48 | inactive
OR2AE1 (GeneID 81392) | SID160750722 | -0.518 | -0.678 | 4.16 | inactive
OR2AE1 (GeneID 81392) | SID160750723 | 1 | 10 | 8.69 | inactive
OR2AE1 (GeneID 81392) | SID160750724 | 0.469 | 6.27 | 4.09 | inactive
